Structures can show the parent of a compound that is named as a salt. This list holds what a sample rich in hits left over.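 How the source made its calls: active = log2 fold change beyond 2 SD from the library mean after excluding viability outliers; inactive = within 2 SD.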
Molecular target: PARP1 L713F-nLuc biosensor (HCT116) (UniProt P09874)
Assay: PARP1 L713F-nLuc/akaLuc ratio relative to DMSO control (biosensor stabilization) (fold change); higher = more PARP1 biosensor stabilization (target engagement / stabilizer), active = hit call of the paper
Conditions: stock concentration (mM; final µM = stock mM x 1): 10; 24 h

Row | Structure (SMILES) | PARP1 L713F-nLuc/akaLuc ratio
1 | Cc1ccc(C(=O)NCCCCCC(=O)Nc2ccccc2N)cc1 | inactive: 0.928
2 | C[C@@H]1C[C@H](N)C[C@H](c2ccncc2NC(=O)c2ccc(F)c(-c3c(F)cccc3F)n2)C1 [PIM-447 (dihydrochloride)] | inactive: 1.48

From the supplement of paper PMC11624193, “Coupling cellular drug-target engagement to downstream pharmacology with CeTEAM” (Nature Communications, 2024)
